This is an account of results in publication PMC9248843, “Structural and biophysical studies of new L-asparaginase variants: lessons from random mutagenesis of the prototypic Escherichia coli Ntn-amidohydrolase” (Acta Crystallographica. Section D, Structural Biology, 2022).

Experiment [1] concerns the target T1, EcAIII α subunit (∼20 kDa) (Escherichia coli, UniProt P37595 1-178).
T1 construct: EcAIII of Escherichia coli, α subunit: cut product of the precursor up to the scissile bond Gly178-Thr179; the linker is partly degraded, residues 158-178 are not visible in the structures; also called subunit α; source: E. coli BL21 Gold, purified (DEAE-Sepharose, SEC); formed by autocleavage of the precursor
T1 sequence (looked up): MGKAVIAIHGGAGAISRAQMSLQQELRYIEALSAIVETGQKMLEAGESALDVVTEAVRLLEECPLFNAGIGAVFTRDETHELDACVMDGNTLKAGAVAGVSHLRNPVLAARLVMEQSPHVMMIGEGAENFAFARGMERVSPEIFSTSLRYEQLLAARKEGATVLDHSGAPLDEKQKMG
In words: crystal structure; hanging-drop vapor diffusion at 20°C; 20–30% PEG 4000 or PEG 6000, 0.2 M MgCl2, 100 mM Tris–HCl pH 8.5; protein 10–15 mg/ml; space group P212121; both purified.

For experiment [2], the target named is EcAIII variant RDM1-8, mature (processed into α/β subunits) (Escherichia coli) (UniProt P37595). Described as above.

These are yes or no findings as the source states them, for the method shown. Some entries that bind do so weakly or less than the wild type.

B1: EcAIII β subunit of variant RDM1-8 (domain or fragment, UniProt P37595 179-321)
chain: TVGAVALDLDGNLAAATSTGGMTNKLPYQVGPTPLVGAGCYANNASVAVSCTGTGEVFIRALAAYDIAALMDYGGLSLAEACERVVMEKLPALGGSGGLIAIDHEGNVALPFNTEGMYRAWGYAGDTPTTGIYREKGDTVATQ
Take B1: the binding entry in experiment [1] is “binds”.

B2: EcAIII variant RDM1-8, mature (processed into α/β subunits) (complex, UniProt P37595 1-178; P37595 179-321)
chain 1: MGKAVIAIHGGAGAISRAQMSLQQELRYIEALSAIVETGQKMLEAGESALDVVTEAVRLLEECPLFNAGIGAVFTRDETHELDACVMDGNTLKAGAVAGVSHLRNPVLAARLVMEQSPHVMMIGEGAENFAFARGMERVSPEIFSTSLRYEQLLAARKEGATVLDHSGAPLDEKQKMG
chain 2: TVGAVALDLDGNLAAATSTGGMTNKLPYQVGPTPLVGAGCYANNASVAVSCTGTGEVFIRALAAYDIAALMDYGGLSLAEACERVVMEKLPALGGSGGLIAIDHEGNVALPFNTEGMYRAWGYAGDTPTTGIYREKGDTVATQ
As for B2, the binding result in experiment [2] is given as “binds”.
